Data source: PubChem BioAssay AID652248 (Drosophila RNAi Screening Center, 2013)
Purpose: 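Kinase and phosphatase regulators of cell lengthening and shape variety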 (primary screen). Cell system: cultured Drosophila hemocytes. Reagents: long dsRNA against Drosophila genes. Read-out: 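Automated microscopy of stained actin, tubulin and nuclei; single-cell shape measures assigned to five reference shape types, giving a score per dsRNA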. Scale: elongated score: higher = more elongated bipolar cells; normal round score: higher = more normal rounded cells; teardrop score: higher = more small teardrop-shaped cells. Rule for the call: 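a gene counts as active when its knock-down clearly increases the elongated score; a low similarity score was then used to rank the actives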.
The whole screen tested 863 reagents; this is an unselected part. Of all reagents, 32 (3.7%) were called active. 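Calls also used reproducibility and a similarity ranking whose scores are not deposited; many active genes show only modest elongated scores.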 Reagents against one gene are numbered here. Reagent sequences are not shown. Not given: the amount of reagent, the time to read-out.

gene | reagent no. | elongated score, rep 1 | normal round score, rep 1 | teardrop score, rep 1 | activity call
hpRNA:CR18854 (hairpin RNA:CR18854) | 1 | -0.37 | -0.09 | 0.09 | inactive
hpRNA:CR18854 (hairpin RNA:CR18854) | 2 | 3.45 | -0.85 | 0.07 | inactive
for (foraging) | 1 | -0.53 | 0.98 | -0.87 | inactive
for (foraging) | 2 | -0.53 | 0.1 | 0.01 | inactive
for (foraging) | 3 | -0.53 | 0.66 | -1 | inactive
CG4945 | 1 | -0.22 | -0.07 | 0.31 | inactive
CG4945 | 2 | 1.7 | -1.25 | 0.47 | inactive
Eph (Eph receptor tyrosine kinase) | 1 | 2.7 | 3.79 | 0.26 | inactive
Mapmodulin | 1 | 0.81 | -1.57 | 1.83 | inactive
Tssk (Testis-specific serine/threonine kinase) | 1 | -0.53 | 0.02 | -0.04 | inactive
Tssk (Testis-specific serine/threonine kinase) | 2 | 0.74 | -3.65 | 3.99 | inactive
laza (lazaro) | 1 | 0.36 | -0.96 | 1.15 | inactive
laza (lazaro) | 2 | -0.22 | -1.26 | 1.33 | inactive
laza (lazaro) | 3 | 4.36 | -3.16 | 1.39 | inactive
trbl (tribbles) | 1 | -0.16 | -0.95 | 0.36 | inactive
Ipp (Inositol polyphosphate 1-phosphatase) | 1 | -0.14 | -0.81 | 1.57 | inactive
Ipp (Inositol polyphosphate 1-phosphatase) | 2 | 1.01 | -0.51 | 0.58 | inactive
MKP-4 (MAPK Phosphatase 4) | 1 | 0.51 | -1.52 | 1.45 | inactive
MKP-4 (MAPK Phosphatase 4) | 2 | -0.25 | -0.11 | 0.4 | inactive
CG10459 | 1 | -0.53 | 0.41 | -0.01 | inactive
CG10459 | 2 | 0.02 | 0.09 | -0.32 | inactive
CanB2 (Calcineurin B2) | 1 | -0.21 | 0.07 | 0.35 | inactive
CanB2 (Calcineurin B2) | 2 | 2.32 | -2.19 | 1.94 | inactive
alc (alicorn) | 1 | -0.53 | 0.42 | -0.03 | inactive
alc (alicorn) | 2 | 0.93 | -1.08 | 0.58 | inactive
alc (alicorn) | 3 | -0.53 | -3.52 | 4.24 | inactive
Argk2 (Arginine kinase 2) | 1 | 0.3 | 0.04 | -0.63 | inactive
Argk2 (Arginine kinase 2) | 2 | 0.96 | -0.11 | -0.22 | inactive
Argk2 (Arginine kinase 2) | 3 | -0.33 | -0.11 | 0.63 | inactive
Raf (Raf oncogene) | 1 | -0.53 | 0.38 | 0.03 | inactive
Raf (Raf oncogene) | 2 | 0.63 | -0.57 | 0.31 | inactive
metro (menage a trois) | 1 | -0.39 | 0.53 | -0.92 | inactive
metro (menage a trois) | 2 | 2.51 | -4.45 | 1.7 | inactive
metro (menage a trois) | 3 | -0.02 | 0.21 | -0.75 | inactive
Nil (Nilkantha) | 1 | 0.76 | -0.13 | 0.14 | inactive
Nil (Nilkantha) | 2 | 0.73 | -2.75 | 0.72 | inactive
Pkc53E (Protein C kinase 53E) | 1 | 0.65 | -0.26 | -0.34 | inactive
Alp9 (Alkaline phosphatase 9) | 1 | -0.53 | -0.75 | 1.11 | inactive
Mekk1 | 1 | -0.18 | -0.12 | -0.08 | inactive
Mekk1 | 2 | -0.45 | 0.59 | -0.37 | inactive
key (kenny) | 1 | -0.32 | -0.71 | 0.44 | inactive

Just “elongated score, rep 1”, for 11 of the entries above:
CanB2 (Calcineurin B2) #1	-0.21
CanB2 (Calcineurin B2) #2	2.32
alc (alicorn) #1	-0.53
alc (alicorn) #2	0.93
alc (alicorn) #3	-0.53
Argk2 (Arginine kinase 2) #1	0.3
Argk2 (Arginine kinase 2) #2	0.96
Argk2 (Arginine kinase 2) #3	-0.33
Raf (Raf oncogene) #1	-0.53
Raf (Raf oncogene) #2	0.63
metro (menage a trois) #1	-0.39

Further reagents follow.
gene | reagent no. | elongated score, rep 1 | normal round score, rep 1 | teardrop score, rep 1 | activity call
Cdk5 (Cyclin-dependent kinase 5) | 1 | -0.06 | -0.32 | 0.43 | inactive
Obsc (Obscurin) | 1 | -0.13 | 0.34 | -0.17 | inactive
Obsc (Obscurin) | 2 | 0.37 | -0.77 | 0.93 | inactive
Obsc (Obscurin) | 3 | -0.04 | -0.46 | 0.77 | inactive
Obsc (Obscurin) | 4 | -0.53 | 0.45 | -0.07 | inactive
Obsc (Obscurin) | 5 | 0.57 | -1.67 | 1.53 | inactive
Slob (Slowpoke binding protein) | 1 | 0.65 | -0.63 | 0.66 | inactive
dap (dacapo) | 1 | 0.84 | -0.43 | -0.42 | inactive
SAK (Sak kinase) | 1 | 2.31 | -4.65 | 4.85 | inactive
SAK (Sak kinase) | 2 | -0.53 | -1.44 | 0.58 | inactive
SAK (Sak kinase) | 3 | 4.31 | -1.26 | -0.38 | inactive
Ptp99A (Protein tyrosine phosphatase 99A) | 1 | 2.68 | -0.68 | -0.52 | inactive
Ptp99A (Protein tyrosine phosphatase 99A) | 2 | 0.81 | -0.87 | -0.36 | inactive
Ptp99A (Protein tyrosine phosphatase 99A) | 3 | -0.36 | -2.16 | 2.51 | inactive
Ptp99A (Protein tyrosine phosphatase 99A) | 4 | 2.57 | -1.47 | 1.29 | inactive
Ptp99A (Protein tyrosine phosphatase 99A) | 5 | -0.17 | -1.28 | 1.5 | inactive
Erk7 (Extracellularly regulated kinase 7) | 1 | -0.01 | -1.38 | 2.13 | inactive
Erk7 (Extracellularly regulated kinase 7) | 2 | -0.53 | 0.8 | -0.57 | inactive
Erk7 (Extracellularly regulated kinase 7) | 3 | -0.39 | 0.02 | 0.21 | inactive
GckIII (Germinal centre kinase III) | 1 | 2.75 | -5.08 | 3.21 | inactive
Synj (Synaptojanin) | 1 | 0.16 | -0.67 | 0.77 | inactive
Adk3 (Adenosine kinase 3) | 1 | -0.03 | 0.55 | -0.75 | inactive
Adk3 (Adenosine kinase 3) | 2 | -0.53 | 0.82 | -1.11 | inactive
sff (sugar-free frosting) | 1 | 0.89 | -0.86 | 0.27 | inactive
CG9961 | 1 | -0.24 | -0.28 | 0.69 | inactive
CG9961 | 2 | 0.05 | -2.48 | 2.47 | inactive
CG9961 | 3 | -0.16 | -0.82 | 0.59 | inactive
